Values from PubChem BioAssay AID652259 (Drosophila RNAi Screening Center, 2013)
Assay: 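Genome-wide hunt for genes that control Wingless pathway activity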 (primary screen). Cell system: Drosophila clone 8 imaginal disc epithelial cells. Reagent: long dsRNA against Drosophila genes. Challenge: pathway stimulated by co-transfected Wingless expression plasmid. Measured: 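Dual luciferase reads per well after Wingless plasmid stimulation: reporter firefly light and Renilla control light; activity is firefly divided by Renilla, a ratio not deposited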. Reading the numbers: firefly reporter light: higher = more Wg reporter light, before normalisation; Renilla control light: higher = more transfected or surviving cells. Rule for the call: 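a knock-down is a candidate when at least two out of four statistical tests show it departing from its plate mean; one test alone signals a weak candidate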. Meaning of the calls: active = candidate regulator (raises or lowers reporter); inactive = not a candidate.
In all, the deposit lists about 22,000 reagents; this is an unselected part of those with a known target gene and a result. Of all reagents, 233 (1.1%) were called active. 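Light values are raw, unnormalised plate reads; the ratio scores behind the reporter calls were not deposited.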 A plus sign joins genes that one reagent is predicted to hit. Not stated in the record: the amount of reagent, the time to read-out, the dose of the treatment.

gene	amplicon	firefly reporter light, replicate 1	firefly reporter light, replicate 2	Renilla control light, replicate 1	Renilla control light, replicate 2	Outcome
dpr6 (defective proboscis extension response 6)	DRSC09005	2821		1530		inactive
dpr6 (defective proboscis extension response 6)	DRSC10162	8390		3618		inactive
dpr6 (defective proboscis extension response 6)	DRSC10163	6490		1904		inactive
CG12576	DRSC20621	31955		9828		inactive
RhoL (Rho-like)	DRSC16824	8948		3206		inactive
CG1137	DRSC12529	9030		2498		inactive
CG14312	DRSC14791	12468		2764		inactive
CG11560	DRSC09843	3293		1744		inactive
CG9175	DRSC03153	13467		6384		inactive
CG13807	DRSC08342	4323		2600		inactive
Rbbp5 (Retinoblastoma binding protein 5)	DRSC11778	15410		3686		inactive
aurA (aurora A)	DRSC16905	12912		4403		inactive
CG32374	DRSC10986	2453	10813	1596	4089	inactive
CG18744	DRSC15381	11080		3004		inactive
Ass + CG31286	DRSC12493	10363		2776		inactive
CG3815	DRSC18324	3319	7722	1011	2647	inactive

Records listed so far whose target name begins with A or a (2):
gene	amplicon	firefly reporter light, replicate 1	firefly reporter light, replicate 2	Renilla control light, replicate 1	Renilla control light, replicate 2	Outcome
aurA (aurora A)	DRSC16905	12912		4403		inactive
Ass + CG31286	DRSC12493	10363		2776		inactive

Next records:
gene	amplicon	firefly reporter light, replicate 1	firefly reporter light, replicate 2	Renilla control light, replicate 1	Renilla control light, replicate 2	Outcome
CG13081	DRSC02185	2038	5786	502	2055	inactive
up (upheld)	DRSC20382	3256	7533	963	2000	inactive
BHD (Birt-Hogg-Dube)	DRSC11017	10598		4249		inactive
BHD (Birt-Hogg-Dube)	DRSC22833	5.00e5	4.62e5	1.77e5	2.02e5	inactive
CG2680	DRSC18466	20663		13620		inactive
CG30273	DRSC22059	4.78e5	4.96e5	1.60e5	1.56e5	inactive
ALiX (ALG-2 interacting protein X)	DRSC14564	2528	7908	1099	2216	inactive
fus (fusilli)	DRSC05569	17441		12800		inactive
fus (fusilli)	DRSC07107	10272		4032		inactive
CG32459	DRSC11852	10665		4249		inactive
CG4230	DRSC02740	4160		2323		inactive
pHCl-2 (pH-sensitive chloride channel 2)	DRSC14306	9092		3418		inactive
CG34458	DRSC06925	6326		2576		inactive
